These results are taken from PMC3808318, “A type III ACC synthase, ACS7, is involved in root gravitropism in Arabidopsis thaliana” (Journal of Experimental Botany, 2013).

Results are given in words; binding and its absence hold for the method and conditions named. In cells and extracts the contact can be indirect. Some entries that bind do so weakly or less than the wild type. For some of these results: Sequences can lack the tags named with a protein.

Common to all, as to assay: split reporter; BiFC in Arabidopsis protoplasts, PEG transformation with YFP-N and YFP-C plasmids (35S promoter), YFP seen by confocal microscopy after 12-16 h
The target of assay [1] is T1, 14-3-3ω fused to a YFP half for BiFC (Arabidopsis) (UniProt Q01525).
T1 sequence: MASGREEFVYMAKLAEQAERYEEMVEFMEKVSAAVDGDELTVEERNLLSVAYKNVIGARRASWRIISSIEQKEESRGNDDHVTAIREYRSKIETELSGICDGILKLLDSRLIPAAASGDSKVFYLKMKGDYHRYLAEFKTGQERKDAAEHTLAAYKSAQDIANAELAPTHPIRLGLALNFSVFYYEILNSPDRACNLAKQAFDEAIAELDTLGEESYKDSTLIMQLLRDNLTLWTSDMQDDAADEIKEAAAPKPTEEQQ

Assay [2] deals with AtACS7 (type III ACC synthase ACS7) fused to a YFP half for BiFC (Arabidopsis thaliana) (UniProt Q9STR4).
Assay [3] concerns the target AtACS7 with Ser216 mutated to alanine, fused to a YFP half for BiFC (Arabidopsis thaliana) (UniProt Q9STR4).
For assay [4], the target named is AtACS7 with Thr296 and Ser299 both mutated to alanine, fused to a YFP half for BiFC (Arabidopsis thaliana) (UniProt Q9STR4).

For “AtACS7 (type III ACC synthase ACS7) fused to a YFP half for BiFC (from UniProt Q9STR4 1-447) (enzyme)”, the binding entry in assay [1] and in assay [2] was “binds” each time.

B1: AtACS7 with Ser216 mutated to alanine, fused to a YFP half for BiFC (enzyme, UniProt Q9STR4 1-447)
chain: MGLPLMMERSSNNNNVELSRVAVSDTHGEDSPYFAGWKAYDENPYDESHNPSGVIQMGLAENQVSFDLLETYLEKKNPEGSMWGSKGAPGFRENALFQDYHGLKTFRQAMASFMEQIRGGKARFDPDRIVLTAGATAANELLTFILADPNDALLVPTPYYPGFDRDLRWRTGVKIVPIHCDSSNHFQITPEALESAYQTARDANIRVRGVLITNPANPLGATVQKKVLEDLLDFCVRKNIHLVSDEIYSGSVFHASEFTSVAEIVENIDDVSVKERVHIVYSLSKDLGLPGFRVGTIYSYNDNVVRTARRMSSFTLVSSQTQHMLASMLSDEEFTEKYIRINRERLRRRYDTIVEGLKKAGIECLKGNAGLFCWMNLGFLLEKKTKDGELQLWDVILKELNLNISPGSSCHCSEVGWFRVCFANMSENTLEIALKRIHEFMDRRRRF
Regarding B1, in assay [3], the binding result is reported as “binds”.

B2: AtACS7 with Thr296 and Ser299 both mutated to alanine, fused to a YFP half for BiFC (enzyme, UniProt Q9STR4 1-447)
chain: MGLPLMMERSSNNNNVELSRVAVSDTHGEDSPYFAGWKAYDENPYDESHNPSGVIQMGLAENQVSFDLLETYLEKKNPEGSMWGSKGAPGFRENALFQDYHGLKTFRQAMASFMEQIRGGKARFDPDRIVLTAGATAANELLTFILADPNDALLVPTPYYPGFDRDLRWRTGVKIVPIHCDSSNHFQITPEALESAYQTARDANIRVRGVLITNPSNPLGATVQKKVLEDLLDFCVRKNIHLVSDEIYSGSVFHASEFTSVAEIVENIDDVSVKERVHIVYSLSKDLGLPGFRVGAIYAYNDNVVRTARRMSSFTLVSSQTQHMLASMLSDEEFTEKYIRINRERLRRRYDTIVEGLKKAGIECLKGNAGLFCWMNLGFLLEKKTKDGELQLWDVILKELNLNISPGSSCHCSEVGWFRVCFANMSENTLEIALKRIHEFMDRRRRF
Take B2: the binding result in assay [4] is reported as “binds”.
